# System: PKCβII mRNA
# Assay: RT-PCR of PKCβII mRNA in synchronized A10 cells
# Format: cell-based, rat
# Conditions: 30 minutes pre-incubation, then 25 mM glucose
# Method: Reverse Transcriptase-Polymerase Chain Reaction. […] The upstream sense primer corresponded to the C4 kinase domain common to both PKCβI and PKCβII (5′ […] 3′) [SEQ ID NO:4] and the downstream antisense primer was specific for PKCβI (5′ […] 3′) [SEQ ID NO:5] (Chalfant et al., 1995, pp.13326-13332). These primers detect inclusion of the PKCβII exon in the mature mRNA as well as PKCβI mRNA. Sense and antisense primers for β-actin (#5402-3) were obtained from Clonetech. PCR was performed using ampliTaq Gold DNA polymerase from PERKIN ELMER (#N808-0240) on 10% of the reverse transcriptase reaction product. Following 35 cycles of amplification in a BIOMETRA Trioblock thermocycler (PKCβI and -βII: 95° C., 30 sec; 64° C., 2 min for 35 cycles; and for β-actin: 94° C., 1 min; 58° C., 1 min; and 72° C., 3 min for 35 cycles), 25% of the PCR reaction was resolved on a 1.2% agarose gel. Bands were observed under UV light and photographed.
# Thus, the PKCβII transcript contains the PKCβI exon with the poly A tail and a common 3′ untranslated region (FIG. 25). Inclusion of the alternatively spliced exon encodes a stop codon such that the PKCβI exon facilitates poly-adenylation but the exon is not translated, thereby generating PKCβII protein. […] Although, this assay is semi-quantitative, the ration of PKCβII to PKCβI mRNA was about 2 to 1.
structure (smiles),measurement,value
CO[C@@H]1[C@H](N(C)C(=O)c2ccccc2)C[C@H]2O[C@]1(C)n1c3ccccc3c3c4c(c5c6ccccc6n2c5c31)C(=O)NC4 [CG 41251],effect of inhibitor on glucose-induced destabilization of PKCβII mRNA,blocked
